± gives the standard deviation of the averaged measurements. Some of the results follow.
Compound: Nc1nc2c(ncn2[C@@H]2O[C@H](COP(=O)(O)OP(=O)(O)OP(=O)(O)O)[C@@H](O)[C@H]2O)c(=O)[nH]1 [guanosine triphosphate]
Assay: NP40-soluble protein abundance relative to vehicle (solubility fold change) (ratio); higher = more soluble protein in presence of GTP
Procedure, shortened: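 Eight concentrations, 0.1 to 10 mM, were tested on Jurkat crude lysate for 10 min at room temperature and then 3 min at 37 °C, in three independent experiments. The lysate was solubilised with 0.8% NP40 and benzonase, ultracentrifuged, and the supernatant TMT-labelled for LC-MS/MS. Each value is the fold change against the detergent-processed vehicle in its own replicate, from vsn-normalised intensities.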

By UniProt entry, the sequences of proteins in these tests, tags left out. Where a name states a change or a piece, a line headed by the entry shows the natural chain unless it says otherwise.
UniProt Q7RTP6, whole entry: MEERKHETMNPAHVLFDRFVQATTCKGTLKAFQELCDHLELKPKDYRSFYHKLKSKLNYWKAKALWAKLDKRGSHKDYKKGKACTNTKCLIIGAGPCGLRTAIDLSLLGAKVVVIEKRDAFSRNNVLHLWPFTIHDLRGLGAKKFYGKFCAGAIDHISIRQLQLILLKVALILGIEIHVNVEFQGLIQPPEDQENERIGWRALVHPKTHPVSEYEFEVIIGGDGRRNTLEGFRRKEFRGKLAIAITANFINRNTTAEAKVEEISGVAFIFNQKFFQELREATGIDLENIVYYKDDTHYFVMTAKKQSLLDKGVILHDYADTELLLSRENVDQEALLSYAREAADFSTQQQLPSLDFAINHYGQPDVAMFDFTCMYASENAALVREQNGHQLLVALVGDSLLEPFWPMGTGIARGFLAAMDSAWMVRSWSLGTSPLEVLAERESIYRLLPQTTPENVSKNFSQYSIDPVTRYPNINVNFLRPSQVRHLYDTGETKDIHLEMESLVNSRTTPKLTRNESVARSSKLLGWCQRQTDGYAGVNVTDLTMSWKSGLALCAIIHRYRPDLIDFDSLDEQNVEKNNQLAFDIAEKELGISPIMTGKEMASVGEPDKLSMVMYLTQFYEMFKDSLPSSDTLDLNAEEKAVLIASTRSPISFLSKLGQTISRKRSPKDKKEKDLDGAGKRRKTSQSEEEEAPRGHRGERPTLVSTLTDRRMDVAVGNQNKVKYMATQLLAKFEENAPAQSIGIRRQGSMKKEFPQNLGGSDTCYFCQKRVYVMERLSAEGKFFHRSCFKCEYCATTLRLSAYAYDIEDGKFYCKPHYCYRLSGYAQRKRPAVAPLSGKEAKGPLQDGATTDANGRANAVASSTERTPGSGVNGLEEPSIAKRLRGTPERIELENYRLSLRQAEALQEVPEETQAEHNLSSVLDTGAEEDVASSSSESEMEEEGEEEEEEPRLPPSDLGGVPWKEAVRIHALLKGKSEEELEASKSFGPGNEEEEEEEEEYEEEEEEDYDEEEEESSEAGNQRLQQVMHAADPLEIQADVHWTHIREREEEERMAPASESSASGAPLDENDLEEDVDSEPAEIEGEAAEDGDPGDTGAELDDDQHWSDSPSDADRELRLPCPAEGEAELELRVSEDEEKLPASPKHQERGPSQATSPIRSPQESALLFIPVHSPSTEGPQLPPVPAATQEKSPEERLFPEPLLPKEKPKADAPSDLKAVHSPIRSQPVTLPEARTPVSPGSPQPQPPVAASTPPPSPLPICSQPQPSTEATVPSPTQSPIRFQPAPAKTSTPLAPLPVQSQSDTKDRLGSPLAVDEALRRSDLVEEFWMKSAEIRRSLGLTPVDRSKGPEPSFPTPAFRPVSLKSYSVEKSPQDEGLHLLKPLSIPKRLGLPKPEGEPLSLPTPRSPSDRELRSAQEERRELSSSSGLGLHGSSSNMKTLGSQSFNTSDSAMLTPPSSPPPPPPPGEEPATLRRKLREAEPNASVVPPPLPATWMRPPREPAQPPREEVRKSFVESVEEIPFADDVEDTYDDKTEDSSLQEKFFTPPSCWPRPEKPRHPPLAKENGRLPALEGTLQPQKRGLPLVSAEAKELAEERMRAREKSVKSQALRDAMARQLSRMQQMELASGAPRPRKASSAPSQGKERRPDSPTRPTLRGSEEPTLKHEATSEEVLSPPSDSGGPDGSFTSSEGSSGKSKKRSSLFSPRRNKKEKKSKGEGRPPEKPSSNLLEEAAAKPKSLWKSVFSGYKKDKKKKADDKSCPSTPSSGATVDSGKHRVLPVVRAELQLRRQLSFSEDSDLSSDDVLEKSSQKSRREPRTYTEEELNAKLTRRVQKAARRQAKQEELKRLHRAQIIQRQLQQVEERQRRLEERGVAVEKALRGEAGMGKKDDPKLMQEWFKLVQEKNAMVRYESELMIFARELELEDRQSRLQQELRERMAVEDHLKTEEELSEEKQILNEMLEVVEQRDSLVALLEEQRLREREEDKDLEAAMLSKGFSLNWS
UniProt Q6PIF6, whole entry: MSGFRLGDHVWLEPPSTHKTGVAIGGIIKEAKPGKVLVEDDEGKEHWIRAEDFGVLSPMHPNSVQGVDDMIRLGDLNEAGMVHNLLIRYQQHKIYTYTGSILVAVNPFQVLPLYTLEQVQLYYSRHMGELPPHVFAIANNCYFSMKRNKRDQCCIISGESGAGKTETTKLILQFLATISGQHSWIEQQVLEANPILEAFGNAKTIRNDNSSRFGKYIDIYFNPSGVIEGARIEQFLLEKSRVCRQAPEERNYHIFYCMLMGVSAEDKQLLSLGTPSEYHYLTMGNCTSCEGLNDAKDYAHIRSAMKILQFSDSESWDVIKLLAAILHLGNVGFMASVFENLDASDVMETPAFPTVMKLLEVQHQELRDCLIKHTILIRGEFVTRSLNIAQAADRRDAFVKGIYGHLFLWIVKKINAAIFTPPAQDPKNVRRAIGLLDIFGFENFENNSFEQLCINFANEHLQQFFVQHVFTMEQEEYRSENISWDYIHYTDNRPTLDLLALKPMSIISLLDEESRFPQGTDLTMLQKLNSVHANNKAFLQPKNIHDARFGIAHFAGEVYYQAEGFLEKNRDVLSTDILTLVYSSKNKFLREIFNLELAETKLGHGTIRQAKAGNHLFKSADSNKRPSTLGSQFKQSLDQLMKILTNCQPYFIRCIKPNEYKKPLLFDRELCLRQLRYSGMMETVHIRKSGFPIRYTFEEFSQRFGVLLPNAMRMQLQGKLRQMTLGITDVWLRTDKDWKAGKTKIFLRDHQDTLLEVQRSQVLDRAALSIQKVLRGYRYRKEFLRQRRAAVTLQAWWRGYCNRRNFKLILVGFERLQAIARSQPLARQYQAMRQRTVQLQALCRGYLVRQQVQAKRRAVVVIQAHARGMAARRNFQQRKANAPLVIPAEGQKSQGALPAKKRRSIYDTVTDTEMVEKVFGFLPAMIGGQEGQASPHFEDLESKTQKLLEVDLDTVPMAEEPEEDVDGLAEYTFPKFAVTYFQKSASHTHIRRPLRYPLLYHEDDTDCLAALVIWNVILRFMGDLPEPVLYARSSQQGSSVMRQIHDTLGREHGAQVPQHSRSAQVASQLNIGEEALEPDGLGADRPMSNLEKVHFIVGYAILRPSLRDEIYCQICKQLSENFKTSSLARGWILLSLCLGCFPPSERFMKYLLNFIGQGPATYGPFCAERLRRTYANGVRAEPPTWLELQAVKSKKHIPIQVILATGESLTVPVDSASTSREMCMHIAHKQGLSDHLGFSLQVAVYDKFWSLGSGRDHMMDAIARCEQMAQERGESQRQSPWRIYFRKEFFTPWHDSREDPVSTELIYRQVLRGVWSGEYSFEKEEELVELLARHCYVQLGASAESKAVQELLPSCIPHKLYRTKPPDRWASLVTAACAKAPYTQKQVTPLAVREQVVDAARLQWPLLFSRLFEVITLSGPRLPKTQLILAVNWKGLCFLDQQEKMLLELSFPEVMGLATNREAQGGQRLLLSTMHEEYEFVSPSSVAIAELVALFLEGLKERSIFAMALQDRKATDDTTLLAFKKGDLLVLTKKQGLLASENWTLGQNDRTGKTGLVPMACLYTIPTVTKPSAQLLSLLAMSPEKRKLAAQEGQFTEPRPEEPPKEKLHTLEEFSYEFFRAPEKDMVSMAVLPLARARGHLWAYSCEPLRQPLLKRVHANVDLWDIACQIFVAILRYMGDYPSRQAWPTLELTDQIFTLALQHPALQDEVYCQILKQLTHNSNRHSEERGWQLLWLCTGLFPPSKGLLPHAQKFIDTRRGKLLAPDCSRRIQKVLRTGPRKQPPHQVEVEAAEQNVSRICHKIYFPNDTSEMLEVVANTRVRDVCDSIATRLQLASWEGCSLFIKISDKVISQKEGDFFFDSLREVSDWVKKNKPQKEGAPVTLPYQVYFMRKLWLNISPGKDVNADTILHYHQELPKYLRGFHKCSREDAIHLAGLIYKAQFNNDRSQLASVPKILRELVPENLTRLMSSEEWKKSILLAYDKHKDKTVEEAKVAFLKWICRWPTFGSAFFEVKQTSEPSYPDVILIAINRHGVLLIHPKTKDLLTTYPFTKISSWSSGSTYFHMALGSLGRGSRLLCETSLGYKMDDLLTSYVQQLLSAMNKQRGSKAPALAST
UniProt Q6NXT1: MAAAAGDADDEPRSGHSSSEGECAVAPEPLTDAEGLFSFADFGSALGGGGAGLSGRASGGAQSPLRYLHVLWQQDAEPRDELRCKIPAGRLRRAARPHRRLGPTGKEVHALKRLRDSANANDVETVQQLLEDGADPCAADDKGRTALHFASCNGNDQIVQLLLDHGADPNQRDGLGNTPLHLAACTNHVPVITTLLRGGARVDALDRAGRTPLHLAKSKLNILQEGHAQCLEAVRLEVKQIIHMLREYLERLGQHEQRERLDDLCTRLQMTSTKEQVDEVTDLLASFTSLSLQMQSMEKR
UniProt Q7Z5K2: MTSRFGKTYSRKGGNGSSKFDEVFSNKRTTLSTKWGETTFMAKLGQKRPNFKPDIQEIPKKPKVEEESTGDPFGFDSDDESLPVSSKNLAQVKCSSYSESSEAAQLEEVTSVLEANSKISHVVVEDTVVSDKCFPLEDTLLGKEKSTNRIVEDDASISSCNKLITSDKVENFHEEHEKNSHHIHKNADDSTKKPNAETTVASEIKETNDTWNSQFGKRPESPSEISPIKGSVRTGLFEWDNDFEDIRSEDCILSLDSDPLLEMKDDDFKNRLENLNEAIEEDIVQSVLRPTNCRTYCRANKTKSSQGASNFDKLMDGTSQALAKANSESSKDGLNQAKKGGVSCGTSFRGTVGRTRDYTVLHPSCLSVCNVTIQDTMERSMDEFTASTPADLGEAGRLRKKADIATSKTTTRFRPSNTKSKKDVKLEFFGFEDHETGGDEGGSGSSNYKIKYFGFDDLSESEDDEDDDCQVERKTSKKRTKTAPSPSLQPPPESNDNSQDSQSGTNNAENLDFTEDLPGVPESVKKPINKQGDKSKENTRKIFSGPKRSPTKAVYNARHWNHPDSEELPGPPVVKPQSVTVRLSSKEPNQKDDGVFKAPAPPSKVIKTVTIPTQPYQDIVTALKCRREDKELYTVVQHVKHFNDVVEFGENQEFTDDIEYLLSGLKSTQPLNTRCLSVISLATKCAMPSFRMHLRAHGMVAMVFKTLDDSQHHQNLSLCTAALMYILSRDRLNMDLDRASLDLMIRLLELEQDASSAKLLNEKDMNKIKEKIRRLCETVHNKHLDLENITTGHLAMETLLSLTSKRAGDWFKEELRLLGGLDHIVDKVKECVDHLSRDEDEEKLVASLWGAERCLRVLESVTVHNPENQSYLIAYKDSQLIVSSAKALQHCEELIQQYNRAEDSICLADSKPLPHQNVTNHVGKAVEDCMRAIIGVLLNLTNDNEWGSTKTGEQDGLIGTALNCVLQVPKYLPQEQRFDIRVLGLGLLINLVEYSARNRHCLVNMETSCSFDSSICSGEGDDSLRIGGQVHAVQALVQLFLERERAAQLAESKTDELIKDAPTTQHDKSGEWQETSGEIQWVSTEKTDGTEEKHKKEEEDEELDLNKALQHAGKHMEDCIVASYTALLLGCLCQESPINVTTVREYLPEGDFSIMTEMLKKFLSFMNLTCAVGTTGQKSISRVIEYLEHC
UniProt Q86T24: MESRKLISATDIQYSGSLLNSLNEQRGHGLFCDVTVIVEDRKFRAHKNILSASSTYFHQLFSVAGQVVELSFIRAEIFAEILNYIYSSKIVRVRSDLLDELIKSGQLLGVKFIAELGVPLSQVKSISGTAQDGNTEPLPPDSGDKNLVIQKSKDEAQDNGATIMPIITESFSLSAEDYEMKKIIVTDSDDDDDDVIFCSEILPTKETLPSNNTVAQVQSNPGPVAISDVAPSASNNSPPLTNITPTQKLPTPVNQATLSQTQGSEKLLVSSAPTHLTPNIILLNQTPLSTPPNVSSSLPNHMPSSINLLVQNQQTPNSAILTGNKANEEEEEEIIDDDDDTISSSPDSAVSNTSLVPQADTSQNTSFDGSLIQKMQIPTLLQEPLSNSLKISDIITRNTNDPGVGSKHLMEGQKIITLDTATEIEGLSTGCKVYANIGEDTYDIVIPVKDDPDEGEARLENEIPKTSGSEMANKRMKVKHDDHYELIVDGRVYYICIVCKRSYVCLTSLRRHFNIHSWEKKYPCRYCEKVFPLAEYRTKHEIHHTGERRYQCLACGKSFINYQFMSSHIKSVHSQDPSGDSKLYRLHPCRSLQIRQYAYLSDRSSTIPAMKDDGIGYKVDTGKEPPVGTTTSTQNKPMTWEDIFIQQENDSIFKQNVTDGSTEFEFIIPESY
UniProt Q7Z7K6: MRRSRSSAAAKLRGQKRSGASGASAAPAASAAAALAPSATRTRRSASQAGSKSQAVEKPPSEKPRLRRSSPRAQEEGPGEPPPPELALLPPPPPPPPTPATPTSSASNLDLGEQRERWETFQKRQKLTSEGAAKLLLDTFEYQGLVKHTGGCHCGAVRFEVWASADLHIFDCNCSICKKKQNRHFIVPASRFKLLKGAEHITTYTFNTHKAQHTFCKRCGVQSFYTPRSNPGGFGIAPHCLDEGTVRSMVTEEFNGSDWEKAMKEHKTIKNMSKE

Target | NP40-soluble protein abundance (concentration: 0.1mM) | NP40-soluble protein abundance (concentration: 0.5mM) | NP40-soluble protein abundance (concentration: 1mM) | NP40-soluble protein abundance (concentration: 2mM) | NP40-soluble protein abundance (concentration: 4mM) | NP40-soluble protein abundance (concentration: 6mM) | NP40-soluble protein abundance (concentration: 8mM) | NP40-soluble protein abundance (concentration: 10mM)
MICAL3 (UniProt Q7RTP6) | 1.01 ± 0.1 | 0.962 ± 0.052 | 1.01 ± 0.12 | 1.07 ± 0.13 | 0.999 ± 0.12 | 0.967 ± 0.066 | 1.02 ± 0.077 | 1.08 ± 0.15
UniProt Q6KCM7 and related entries | 1.12 ± 0.041 | 1.08 ± 0.034 | 1.06 ± 0.058 | 1.04 ± 0.016 | 1.04 ± 0.066 | 1.019 ± 0.0034 | 0.982 ± 0.061 | 0.989 ± 0.098
COMMD6 (UniProt Q7Z4G1) | 0.965 ± 0.082 | 0.928 ± 0.07 | 1.03 ± 0.066 | 1.04 ± 0.046 | 1 ± 0.046 | 1.01 ± 0.052 | 0.951 ± 0.072 | 1.05 ± 0.061
UniProt Q7LDG7 and related entries | 0.987 ± 0.044 | 1.03 ± 0.057 | 0.961 ± 0.037 | 1.02 ± 0.087 | 0.9882 ± 0.0074 | 0.994 ± 0.11 | 0.945 ± 0.1 | 0.994 ± 0.026
UniProt Q86UK7 and related entries | 1.02 ± 0.037 | 1.08 ± 0.051 | 1.05 ± 0.024 | 1.07 ± 0.034 | 1.13 ± 0.046 | 1.16 ± 0.057 | 1.17 ± 0.052 | 1.208 ± 0.0062
WDR73 (UniProt Q6P4I2) | 1.02 ± 0.094 | 1.02 ± 0.18 | 0.928 ± 0.087 | 0.904 ± 0.13 | 0.893 ± 0.12 | 0.904 ± 0.092 | 0.89 ± 0.1 | 0.851 ± 0.15
MRM1 (UniProt Q6IN84) | 1.15 ± 0.1 | 1.17 ± 0.11 | 1.3 ± 0.2 | 1.396 ± 0.0059 | 1.44 ± 0.052 | 1.59 ± 0.059 | 1.59 ± 0.26 | 1.68 ± 0.12
YRDC (UniProt Q86U90) | 0.989 ± 0.041 | 0.952 ± 0.022 | 0.949 ± 0.027 | 0.943 ± 0.015 | 0.946 ± 0.041 | 0.899 ± 0.026 | 0.871 ± 0.07 | 0.916 ± 0.055
INTS5 (UniProt Q6P9B9) | 1.05 ± 0.046 | 1.1 ± 0.039 | 1.14 ± 0.052 | 1.2 ± 0.12 | 1.21 ± 0.17 | 1.22 ± 0.18 | 1.23 ± 0.15 | 1.18 ± 0.11
ALKBH5 (UniProt Q6P6C2) | 0.979 ± 0.028 | 1.19 ± 0.069 | 1.2 ± 0.043 | 1.3 ± 0.13 | 1.26 ± 0.078 | 1.37 ± 0.11 | 1.39 ± 0.054 | 1.47 ± 0.081
UniProt Q6N069 | 1.18 ± 0.17 | 1.15 ± 0.15 | 0.945 ± 0.049 | 1.11 ± 0.16 | 1.08 ± 0.1 | 1.01 ± 0.11 | 0.926 ± 0.086 | 0.926 ± 0.13
PGM2L1 (UniProt Q6PCE3) | 1.09 ± 0.058 | 1.08 ± 0.11 | 0.949 ± 0.025 | 0.978 ± 0.12 | 0.951 ± 0.085 | 0.916 ± 0.094 | 0.862 ± 0.084 | 0.871 ± 0.12
CWF19L1 (UniProt Q69YN2) | 0.987 ± 0.015 | 0.991 ± 0.052 | 0.926 ± 0.025 | 0.924 ± 0.023 | 0.922 ± 0.013 | 0.907 ± 0.024 | 0.898 ± 0.052 | 0.879 ± 0.049
UniProt Q7Z591 and related entries | 1.02 ± 0.092 | 0.915 ± 0.048 | 1.07 ± 0.048 | 1.11 ± 0.067 | 1.13 ± 0.11 | 1.15 ± 0.047 | 1.19 ± 0.16 | 1.21 ± 0.14
UniProt Q6PIF6 | 1.1 ± 0.031 | 1.04 ± 0.1 | 1.06 ± 0.11 | 1.09 ± 0.14 | 1.16 ± 0.19 | 1.15 ± 0.097 | 1.09 ± 0.17 | 1.03 ± 0.14
FBXO46 (UniProt Q6PJ61) | 1.06 ± 0.12 | 1.06 ± 0.08 | 1.06 ± 0.18 | 1.06 ± 0.12 | 1.06 ± 0.17 | 1.02 ± 0.27 | 1.09 ± 0.21 | 1.2 ± 0.29
Q5VWV2 and related entries (UniProt Q8TEW0) | 1.02 ± 0.11 | 1.02 ± 0.084 | 1.05 ± 0.098 | 1.07 ± 0.089 | 1.17 ± 0.14 | 1.15 ± 0.14 | 1.2 ± 0.14 | 1.19 ± 0.1
UniProt Q66PJ3 and related entries | 0.994 ± 0.095 | 1.03 ± 0.12 | 1.05 ± 0.12 | 0.995 ± 0.18 | 0.912 ± 0.12 | 0.879 ± 0.13 | 0.935 ± 0.094 | 0.974 ± 0.094
UniProt Q7L5Y1 and related entries | 0.98 ± 0.083 | 0.984 ± 0.06 | 0.919 ± 0.049 | 0.914 ± 0.055 | 0.9 ± 0.18 | 0.889 ± 0.038 | 0.861 ± 0.18 | 0.86 ± 0.2
ANKRD54 (UniProt Q6NXT1) | 0.946 ± 0.055 | 0.874 ± 0.075 | 1.02 ± 0.056 | 0.945 ± 0.05 | 0.984 ± 0.091 | 0.941 ± 0.081 | 0.923 ± 0.11 | 0.951 ± 0.041
UniProt Q86U38 | 1.15 ± 0.21 | 1.17 ± 0.24 | 1.26 ± 0.36 | 1.19 ± 0.29 | 1.28 ± 0.37 | 1.35 ± 0.42 | 1.3 ± 0.27 | 1.37 ± 0.41
UniProt Q7Z5K2 and related entries | 1 ± 0.042 | 1.03 ± 0.011 | 1.026 ± 0.0099 | 1.02 ± 0.011 | 1 ± 0.012 | 0.9971 ± 0.0042 | 1.02 ± 0.038 | 1 ± 0.017
UniProt Q69YN4 | 1.04 ± 0.06 | 1.04 ± 0.037 | 1.04 ± 0.014 | 1.052 ± 0.0097 | 1.07 ± 0.01 | 1.05 ± 0.034 | 1.05 ± 0.036 | 1.02 ± 0.045
Q5TH30 and related entries (UniProt Q9UGV2) | 0.97 ± 0.092 | 0.953 ± 0.058 | 0.965 ± 0.084 | 0.884 ± 0.043 | 0.917 ± 0.1 | 0.893 ± 0.08 | 0.941 ± 0.095 | 0.874 ± 0.065
CES3 (UniProt Q6UWW8) | 1.093 ± 0.0059 | 1.09 ± 0.11 | 1.1616 ± 0.00041 | 1.13 ± 0.023 | 1.03 ± 0.057 | 0.993 ± 0.026 | 1.01 ± 0.11 | 0.982 ± 0.025
UniProt Q6VMQ6 and related entries | 0.978 ± 0.048 | 0.974 ± 0.045 | 1.01 ± 0.082 | 0.964 ± 0.086 | 0.982 ± 0.086 | 0.974 ± 0.091 | 1 ± 0.032 | 0.996 ± 0.067
UniProt Q6ZT12 and related entries | 0.974 ± 0.1 | 0.955 ± 0.14 | 0.917 ± 0.017 | 0.868 ± 0.048 | 0.866 ± 0.055 | 0.862 ± 0.057 | 0.849 ± 0.099 | 0.816 ± 0.082
ZBTB33 (UniProt Q86T24) | 1.02 ± 0.13 | 1.05 ± 0.04 | 1.01 ± 0.088 | 0.97 ± 0.12 | 0.988 ± 0.1 | 0.959 ± 0.048 | 0.992 ± 0.1 | 0.986 ± 0.099
UniProt Q7Z7K6 and related entries | 1.09 ± 0.035 | 1.08 ± 0.071 | 1.16 ± 0.013 | 1.37 ± 0.071 | 1.69 ± 0.2 | 2.01 ± 0.27 | 2.24 ± 0.32 | 3.21 ± 0.43
UniProt Q75QN2 and related entries | 1.18 ± 0.17 | 1.17 ± 0.12 | 1.16 ± 0.055 | 1.24 ± 0.17 | 1.35 ± 0.24 | 1.25 ± 0.16 | 1.23 ± 0.15 | 1.18 ± 0.091

In a second layout: entries from further up
Target	NP40-soluble protein abundance (concentration: 0.1mM)	NP40-soluble protein abundance (concentration: 0.5mM)	NP40-soluble protein abundance (concentration: 1mM)	NP40-soluble protein abundance (concentration: 2mM)	NP40-soluble protein abundance (concentration: 4mM)	NP40-soluble protein abundance (concentration: 6mM)	NP40-soluble protein abundance (concentration: 8mM)	NP40-soluble protein abundance (concentration: 10mM)
UniProt Q86UK7 and related entries	1.02 ± 0.037	1.08 ± 0.051	1.05 ± 0.024	1.07 ± 0.034	1.13 ± 0.046	1.16 ± 0.057	1.17 ± 0.052	1.208 ± 0.0062
YRDC (UniProt Q86U90)	0.989 ± 0.041	0.952 ± 0.022	0.949 ± 0.027	0.943 ± 0.015	0.946 ± 0.041	0.899 ± 0.026	0.871 ± 0.07	0.916 ± 0.055
ALKBH5 (UniProt Q6P6C2)	0.979 ± 0.028	1.19 ± 0.069	1.2 ± 0.043	1.3 ± 0.13	1.26 ± 0.078	1.37 ± 0.11	1.39 ± 0.054	1.47 ± 0.081
CWF19L1 (UniProt Q69YN2)	0.987 ± 0.015	0.991 ± 0.052	0.926 ± 0.025	0.924 ± 0.023	0.922 ± 0.013	0.907 ± 0.024	0.898 ± 0.052	0.879 ± 0.049
UniProt Q7Z5K2 and related entries	1 ± 0.042	1.03 ± 0.011	1.026 ± 0.0099	1.02 ± 0.011	1 ± 0.012	0.9971 ± 0.0042	1.02 ± 0.038	1 ± 0.017
UniProt Q69YN4	1.04 ± 0.06	1.04 ± 0.037	1.04 ± 0.014	1.052 ± 0.0097	1.07 ± 0.01	1.05 ± 0.034	1.05 ± 0.036	1.02 ± 0.045
UniProt Q75QN2 and related entries	1.18 ± 0.17	1.17 ± 0.12	1.16 ± 0.055	1.24 ± 0.17	1.35 ± 0.24	1.25 ± 0.16	1.23 ± 0.15	1.18 ± 0.091
